The supplement of paper PMC4604168 (melanoma cell lines)
Some of the results follow. Repeats are few or missing, and single values can be far off.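 Imaging used 1,536-well plates; nuclei positive for cleaved PARP by antibody were divided by total DNA-stained nuclei to yield the apoptosis fraction. Doses for screening kept most cells viable, and cell lines differ markedly in resting and induced cleaved-PARP levels.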

System: CBRC017 (line from a melanoma biopsy)
Experiment: cleaved PARP positive nuclei fraction relative to DMSO control; melanoma cells; higher = more apoptosis
Conditions: library dose: low library concentration; 72 h

Row | Structure (SMILES) | cleaved PARP positive nuclei fraction [%]
1 | C#Cc1cccc(Nc2ncnc3cc(OCCOC)c(OCCOC)cc23)c1 [erlotinib] + COc1ccc(Cl)c(Nc2nc3ccccc3nc2NS(=O)(=O)c2cccc(NC(=O)C(C)(C)N)c2)c1 [XL147] (first compound 0.8 µM, partner dose 0.8 µM) | 98.1
2 | CO[C@@H]1[C@H](N(C)C(=O)c2ccccc2)C[C@H]2O[C@]1(C)n1c3ccccc3c3c4c(c5c6ccccc6n2c5c31)C(=O)NC4 [Midostaurin] + c1cc(-c2cnn3cc(-c4ccc(OCCN5CCCCC5)cc4)cnc23)ccn1 [Dorsomorphin] (first compound 0.08 µM, partner dose 0.4 µM) | 93.2
3 | NC(=O)Nc1cc(-c2cccc(F)c2)sc1C(=O)N[C@H]1CCCNC1 + N#Cc1c(O)c2c(-c3ccc(-c4ccccc4O)cc3)csc2[nH]c1=O [A769662] (first compound 0.02 µM, partner dose 2 µM) | 85.3
4 | C[C@]1(c2nc3c(C(N)=O)cccc3[nH]2)CCCN1 [Veliparib] + Cc1cc(N2CCOCC2)cc2[nH]c(-c3c(NC[C@@H](O)c4cccc(Cl)c4)cc[nH]c3=O)nc12 [BMS536924] (first compound 1.4 µM, partner dose 0.2 µM) | 91.7
5 | OCCn1cc(-c2cnc3nnn(Cc4ccc5ncccc5c4)c3n2)cn1 + CCN(CC)CCCCNc1ncc2cc(-c3cc(OC)cc(OC)c3)c(NC(=O)NC(C)(C)C)nc2n1 [PD173074] (first compound 1 µM, partner dose 0.1 µM) | 83.7
6 | CC(=O)c1c(C)c2cnc(Nc3ccc(N4CCNCC4)cn3)nc2n(C2CCCC2)c1=O [palbociclib] + O=S(=O)(c1ccccc1)N(CC(F)(F)F)c1ccc(C(O)(C(F)(F)F)C(F)(F)F)cc1 [T0901317] (first compound 0.04 µM, partner dose 1.4 µM) | 97.8
7 | Cc1nc(Nc2ncc(C(=O)Nc3c(C)cccc3Cl)s2)cc(N2CCN(CCO)CC2)n1 [dasatanib] + CN(C)S(=O)(=O)c1ccc2c(c1)/C(=C/c1cc3c([nH]1)CCCC3)C(=O)N2 [SU6656] (first compound 0.004 µM, partner dose 0.4 µM) | 96.7
8 | CC(=O)c1c(C)c2cnc(Nc3ccc(N4CCNCC4)cn3)nc2n(C2CCCC2)c1=O [palbociclib] + COc1cc(Nc2ncc(F)c(Nc3ccc4c(n3)NC(=O)C(C)(C)O4)n2)cc(OC)c1OC [Tamatinib] (first compound 0.04 µM, partner dose 0.4 µM) | 83.9
9 | CO[C@@H]1[C@H](N(C)C(=O)c2ccccc2)C[C@H]2O[C@]1(C)n1c3ccccc3c3c4c(c5c6ccccc6n2c5c31)C(=O)NC4 [Midostaurin] + CN(NC(=O)CC(=O)NN(C)C(=S)c1ccccc1)C(=S)c1ccccc1 [STA4783] (first compound 0.08 µM, partner dose 0.006 µM) | 181
10 | Cc1cc(N2CCOCC2)cc2[nH]c(-c3c(NC[C@@H](O)c4cccc(Cl)c4)cc[nH]c3=O)nc12 + CC(C)CCN1c2nc(Nc3cc(F)c(O)c(F)c3)ncc2N(C)C(=O)C1C [BID1870] (first compound 0.2 µM, partner dose 0.2 µM) | 87.7
11 | Nc1cccc2c1CN(C1CCC(=O)NC1=O)C2=O (stereo not given) [lenalidomide] + COc1cc2c(Oc3ccc4[nH]c(C)cc4c3F)ncnc2cc1OCCCN1CCCC1 [cediranib] (first compound 1 µM, partner dose 0.4 µM) | 82.1
12 | CC(C)(C)c1cnc(CSc2cnc(NC(=O)C3CCNCC3)s2)o1 + O=S(=O)(c1ccccc1)N(CC(F)(F)F)c1ccc(C(O)(C(F)(F)F)C(F)(F)F)cc1 [T0901317] (first compound 0.01 µM, partner dose 1.4 µM) | 79.1
13 | OCc1c[nH]c2ccccc12 [Indole-3-carbinol] + NCC(=O)Nc1ccc(-n2nc(C(F)(F)F)cc2-c2ccc3c(ccc4ccccc43)c2)cc1 [OSU03012] (first compound 0.8 µM, partner dose 1 µM) | 117
14 | C[C@]1(c2nc3c(C(N)=O)cccc3[nH]2)CCCN1 [Veliparib] + O=c1cc(-c2cccc3c2Sc2ccccc2S3)oc(N2CCOCC2)c1 [KU55933] (first compound 1.4 µM, partner dose 1 µM) | 174
15 | CC(C)(C)c1cnc(CSc2cnc(NC(=O)C3CCNCC3)s2)o1 + COc1cc2ncnc(Nc3ccc(Oc4ccccc4)cc3)c2cc1OC [SrcI1] (first compound 0.01 µM, partner dose 2 µM) | 76.1
16 | C#Cc1cccc(Nc2ncnc3cc(OCCOC)c(OCCOC)cc23)c1 [erlotinib] + OCCn1cc(-c2cnc3nnn(Cc4ccc5ncccc5c4)c3n2)cn1 [PF04217903] (first compound 0.8 µM, partner dose 1 µM) | 109
17 | Cn1nnc2c(C(N)=O)ncn2c1=O [temozolomide] + Oc1nc(-c2ccc(C(F)(F)F)cc2)nc2c1CSCC2 [XAV939] (first compound 2 µM, partner dose 2 µM) | 77.2
18 | COCC[n+]1c2c(n(Cc3cnccn3)c1C)C(=O)c1ccccc1C2=O + CN(C)S(=O)(=O)c1ccc2c(c1)/C(=C/c1cc3c([nH]1)CCCC3)C(=O)N2 [SU6656] (first compound 0.0004 µM, partner dose 0.4 µM) | 219
19 | C=CCn1c(=O)c2cnc(Nc3ccc(N4CCN(C)CC4)cc3)nc2n1-c1cccc(C(C)(C)O)n1 + CN(NC(=O)CC(=O)NN(C)C(=S)c1ccccc1)C(=S)c1ccccc1 [STA4783] (first compound 0.02 µM, partner dose 0.006 µM) | 152
20 | C=CCNC1=C2C[C@@H](C)C[C@H](OC)[C@H](O)[C@@H](C)/C=C(\C)[C@H](OC(N)=O)[C@@H](OC)/C=C\C=C(/C)C(=O)NC(=CC1=O)C2=O [Tanespimycin] + COc1ccc(-c2ccc3c(N4CCOCC4)nc(N4C[C@@H](C)O[C@@H](C)C4)nc3n2)cc1CO [KU0063794] (first compound 0.002 µM, partner dose 0.02 µM) | 72.4
21 | Cc1ccc(NC(=O)c2cccc(N(C)C)c2)cc1NC(=O)c1ccc(O)cc1 + Oc1cc(-c2nc(-c3ccccc3)[nH]c2-c2ccncc2)ccc1Cl [L779450] (first compound 2 µM, partner dose 0.2 µM) | 89.1
22 | Cn1nnc2c(C(N)=O)ncn2c1=O [temozolomide] + CCN(CC)CCCCNc1ncc2cc(-c3cc(OC)cc(OC)c3)c(NC(=O)NC(C)(C)C)nc2n1 [PD173074] (first compound 2 µM, partner dose 0.1 µM) | 79.2
23 | CC(=O)c1c(C)c2cnc(Nc3ccc(N4CCNCC4)cn3)nc2n(C2CCCC2)c1=O [palbociclib] + COc1ccc(COc2ccc(Cc3cnc(N)nc3N)cc2OC)cc1 [GW2580] (first compound 0.04 µM, partner dose 1 µM) | 103
24 | C[C@]1(c2nc3c(C(N)=O)cccc3[nH]2)CCCN1 [Veliparib] + COc1cc2c(Oc3ccc4[nH]c(C)cc4c3F)ncnc2cc1OCCCN1CCCC1 [cediranib] (first compound 1.4 µM, partner dose 0.4 µM) | 86.3
25 | C=CCn1c(=O)c2cnc(Nc3ccc(N4CCN(C)CC4)cc3)nc2n1-c1cccc(C(C)(C)O)n1 + OCCn1cc(-c2cnc3nnn(Cc4ccc5ncccc5c4)c3n2)cn1 [PF04217903] (first compound 0.02 µM, partner dose 1 µM) | 201

No new results follow: an excerpt of the list.
Row | Structure (SMILES) | cleaved PARP positive nuclei fraction [%]
20 | C=CCNC1=C2C[C@@H](C)C[C@H](OC)[C@H](O)[C@@H](C)/C=C(\C)[C@H](OC(N)=O)[C@@H](OC)/C=C\C=C(/C)C(=O)NC(=CC1=O)C2=O [Tanespimycin] + COc1ccc(-c2ccc3c(N4CCOCC4)nc(N4C[C@@H](C)O[C@@H](C)C4)nc3n2)cc1CO [KU0063794] (first compound 0.002 µM, partner dose 0.02 µM) | 72.4
21 | Cc1ccc(NC(=O)c2cccc(N(C)C)c2)cc1NC(=O)c1ccc(O)cc1 + Oc1cc(-c2nc(-c3ccccc3)[nH]c2-c2ccncc2)ccc1Cl [L779450] (first compound 2 µM, partner dose 0.2 µM) | 89.1
